# Patent US6790824B1, “Cytokines having neurotrophic activity” (Biopharm Gesellschaft zur biotechnologischen Entwicklung …, priority 1997, dated 2004)
# For at least one compound, name, drawing or mass did not settle the structure.
# System: chick ciliary ganglionic (CG) neurons
# Experiment: Survival of embryonic chick ciliary ganglionic (CG) neurons, 24 h, counting of surviving neurons
# Format: cell-based
# Conditions: wortmannin 0.25 μM
# Method: Embryonic chick ciliary (CG), dorsal root (DRG), and sympathetic (SG) ganglia at embryonic day(s) (E) 8, 10, and 12, were dissected, freed from nerve roots and connective tissue and collected in CME. Ganglia were incubated in trypsin (ICN), washed and dissociated by trituration using fire-polished Pasteur pipettes. Cultures were set up in 96-well microtiter plates (Costar, A/2), precoated with poly-L-ornithine and laminin at a density of 1,200-1,500 cells/well in DMEM supplemented with N1 additives, 0.25% BSA, and 0.1% PSN (DME/N1) and incubated at 37° C. in a 5% CO2 incubator.
# At appropriate times (CG: 24 h, DRG: 48 h, SG: 72 h) cultures were fixed by addition of 2.5% glutardialdehyde in phosphate buffered saline (PBS). Numbers of surviving neurons were determined by direct counting of 30% of the surface area using phase contrast microscopy.
# Phosphatidylinositol-specific phospholipase C (PIPLC) is an enzyme that specifically cleaves glycosyl-phosphatidylinositol (GPI) linkages. Embryonic chick ciliary ganglionic neurons (E8) were isolated and seeded as described before. Neurons were incubated for 1 h at 37° C. with 1) 100 mU PIPLC or II) 100 mU PIPLC+2 ng/ml TGFβ or III) without enzyme and then growth factors were added. The number of surviving neurons was determined 24 h later.
structure (smiles),measurement,value
"COC[C@H]1OC(=O)c2coc3c2[C@@]1(C)C1=C(C3=O)[C@@H]2CCC(=O)[C@@]2(C)C[C@H]1OC(C)=O [wortmannin, reference compound]",effect on CNTF-mediated survival of ciliary neurons,did not interfere with the survival promoting effect of CNTF
same,effect on GDNF/TGF-β-mediated survival of ciliary neurons,completely abolished the survival promoting effect of GDNF in conjunction with TGF-β
